## Screening data

The results are deposited in PubChem (AID1053133; Broad Institute, 2014).

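Plate-reader measure of the Venus reporter marking one vaccinia stage in infected cells (the cell line is not named here); read time unknown.
The test concentration is not given here.
Percent change in Venus reporter signal; lower (more negative) values mean stronger inhibition of that viral stage.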

Values are in %.
How 0% and 100% were set is not given here.
Common to all entries: measured here: Venus reporter, other viral stage.
This is a side read-out of the assay, for part of the compounds, not drawn at random.

| SMILES | activity change (Venus) (%) |
|---|---|
| `COc1cccc(S(=O)(=O)Nc2ccc3c(c2)C(=O)N(C)C[C@H](OC)[C@H](C)CN(Cc2ccccc2F)[C@H](C)CO3)c1` | -32.42 |
| `C[C@@H]1CN([C@@H](C)CO)C(=O)Cc2cc(NS(=O)(=O)c3ccc(Cl)cc3)ccc2O[C@@H]1CN(C)Cc1ccc(Cl)c(Cl)c1` | -42.51 |
| `C[C@H]1CN([C@@H](C)CO)C(=O)Cc2cc(NC(=O)Nc3ccc4c(c3)OCO4)ccc2O[C@@H]1CN(C)Cc1ccc(C(F)(F)F)cc1` | -22.42 |
| `CN1c2ccc(C3=CCCCC3)cc2[C@H]2[C@H](CCN2C(=O)C2CCC2)[C@@H]1CO` | -28.34 |
| `C[C@@H]1CN([C@@H](C)CO)C(=O)c2cc(NC(=O)Nc3ccc(C(F)(F)F)cc3)ccc2O[C@@H]1CN(C)Cc1ccccc1` | -59.89 |
| `OC[C@H]1[C@H](c2ccc(-c3cccc(F)c3)cc2)[C@H]2CN(CCC(F)(F)F)CCCCN21` | -35.29 |
| `COc1ccc(S(=O)(=O)N[C@H]2C=C[C@H](CC(=O)N3CCC(Cc4ccccc4)CC3)O[C@@H]2CO)cc1` | -32.45 |
| `C/C=C/c1ccc([C@@H]2[C@H]3CN(C(=O)Nc4cccc(OC)c4)CC(=O)N3[C@H]2CO)cc1` | -46.29 |
| `Cc1ccccc1-c1ccc2c(c1)O[C@@H](CN(C)C(=O)Nc1ccc(C(F)(F)F)cc1)[C@@H](C)CN([C@H](C)CO)S2(=O)=O` | -45.78 |
| `C[C@H]1CN([C@@H](C)CO)C(=O)Cc2cc(NC(=O)Nc3ccc(F)cc3)ccc2O[C@H]1CN(C)S(=O)(=O)c1ccc(Cl)cc1` | -40.81 |
| `N#C[C@H]1[C@@H](c2ccc(C#Cc3cccc(F)c3)cc2)[C@H](CO)N1C(=O)C1CCC1` | -36.47 |
| `Cc1cccc(S(=O)(=O)N(C)C[C@H]2OCc3ccccc3-c3c(n(C)c4ccccc34)C(=O)N([C@H](C)CO)C[C@@H]2C)c1` | -62.7 |
| `Fc1cccc(CN2C[C@@H]3N[C@H](C2)C3c2ccc(-c3ccccc3)cc2)c1` (stereo partly drawn) | -76.05 |
| `Cc1noc(C)c1S(=O)(=O)Nc1ccc2c(c1)C(=O)N([C@H](C)CO)C[C@@H](C)[C@@H](CN(C)Cc1ccc(Oc3ccccc3)cc1)O2` | -36.84 |
| `Cc1cccc(S(=O)(=O)N[C@H]2CC[C@H](CCNS(=O)(=O)c3ccccc3F)O[C@@H]2CO)c1` | -30.61 |
| `N#C[C@H]1[C@H](c2ccccc2C2=CCCCC2)[C@@H](CO)N1S(=O)(=O)c1cccc(F)c1` | -47.81 |
| `C[C@@H]1CCCCO[C@H](CN(C)Cc2ccc3c(c2)OCO3)[C@H](C)CN([C@H](C)CO)C(=O)c2cc(NC(=O)NC3CCCCC3)ccc2O1` | -58.64 |
| `C[C@@H]1CN([C@H](C)CO)C(=O)c2c(c3ccccc3n2C)-c2ccccc2CO[C@H]1CN(C)C(=O)Nc1cccc(C(F)(F)F)c1` | -60.51 |
| `CO[C@H]1CN(C)C(=O)c2ccc(NC(=O)c3cccc(Oc4ccccc4)c3)cc2OC[C@@H](C)NC[C@H]1C` | -62.03 |
| `O=C(N[C@@H]1C[C@@H]2O[C@H](CO)CC[C@@H]2O[C@@H]1CCc1ccc(C#Cc2ccccc2)cc1)c1ccccn1` | -32.86 |
| `C[C@@H]1CCCCO[C@@H](CN(C)Cc2ccc3c(c2)OCO3)[C@@H](C)CN([C@@H](C)CO)C(=O)c2cc(NC(=O)C3CCCCC3)ccc2O1` | -55.88 |
| `C[C@H](CO)N1C[C@H](C)[C@@H](CN(C)C(=O)c2ccc(F)cc2)Oc2ncc(/C=C/c3ccccc3)cc2C1=O` | -38.08 |
| `COc1cccc(NC(=O)N2CC(=O)N3[C@H](CO)[C@@H](c4ccc(C#CC5CCCC5)cc4)[C@H]3C2)c1` | -26.18 |
| `Cc1ccc(-c2cnc3c(c2)C(=O)N([C@@H](C)CO)C[C@H](C)[C@@H](CN(C)CC2CCCC2)O3)cc1` | -23.83 |
| `C[C@@H]1CN([C@H](C)CO)S(=O)(=O)c2ccc(-c3ccccc3F)cc2O[C@H]1CN(C)Cc1cccnc1` | -53.35 |
| `O=C(C[C@@H]1CC[C@H]2[C@@H](COC[C@@H](O)CN2S(=O)(=O)c2ccc(Cl)cc2)O1)NCc1ccc(Cl)c(Cl)c1` | -62.68 |
| `COc1ccc(CN(C)C[C@@H]2OCCCC[C@H](C)Oc3ccc(NC(=O)NC4CCCCC4)cc3C(=O)N([C@@H](C)CO)C[C@@H]2C)cc1` | -56.62 |
| `COc1ccc(C#Cc2cnc3c(c2)C(=O)N([C@@H](C)CO)C[C@@H](C)[C@H](CN(C)C(=O)c2ccccc2F)O3)cc1` | -38.73 |
| `CCCN1CCC2(CC1)CN(Cc1ccc3c(c1)OCO3)[C@H](CO)c1[nH]c3cc(OC)ccc3c12` | -58.05 |
| `COCC(=O)N(C)C[C@H]1Oc2cc(C#CCC3CCCC3)ccc2S(=O)(=O)N([C@H](C)CO)C[C@@H]1C` | -57.64 |
| `C[C@H]1CN([C@@H](C)CO)C(=O)c2ccccc2-c2ccccc2CO[C@@H]1CN(C)C(=O)CCN(C)C` | -22.7 |
| `C[C@@H]1CN([C@@H](C)CO)S(=O)(=O)c2ccc(C3=CCCCC3)cc2O[C@@H]1CN(C)C(=O)Nc1ccc2c(c1)OCO2` | -42.18 |
| `C[C@H]1CCCCO[C@H](CN(C)Cc2ccc(C(F)(F)F)cc2)[C@@H](C)CN([C@@H](C)CO)C(=O)c2cc(N(C)C)ccc2O1` | -50.4 |
| `Cc1noc(C)c1S(=O)(=O)Nc1ccc2c(c1)C(=O)N([C@@H](C)CO)C[C@@H](C)[C@H](CN(C)S(=O)(=O)c1ccc(F)cc1)OCCCC[C@@H](C)O2` | -40.79 |
| `O=C(C[C@@H]1CC[C@@H]2[C@H](COC[C@@H](O)CN2Cc2cccc(-c3ccncc3)c2)O1)N1CCN(c2ccccc2)CC1` | -39.33 |
| `N#Cc1ccc(-c2ccc3c(c2)[C@H]2[C@H](CCN2C(=O)C2CCC2)[C@H](CO)N3)cc1` | -12.43 |
| `C[C@@H]1CN([C@@H](C)CO)C(=O)c2cccc(NC(=O)CCCCCC(=O)Nc3ccccc3N)c2O[C@H]1CN(C)Cc1ccc2c(c1)OCO2` | -37.13 |
| `O=C(Nc1ccc(F)cc1)N1CCCCN2[C@H](CO)[C@H](c3ccc(-c4cccc(F)c4)cc3)[C@H]2C1` | -82.98 |
| `Cc1ccccc1-c1ccc2c(c1)O[C@H](CN(C)Cc1ccncc1)[C@H](C)CN([C@H](C)CO)S2(=O)=O` | -60.55 |
| `C[C@@H]1CN([C@@H](C)CO)C(=O)c2cc(C#CC3CCCCC3)cnc2O[C@H]1CN(C)C(=O)C1CCCCC1` | -32.46 |

Some entries from above, unchanged:

Result for OC[C@H]1[C@H](c2ccc(-c3cccc(F)c3)cc2)[C@H]2CN(CCC(F)(F)F)CCCCN21 was activity change (Venus) -35.29%.
Result for C[C@@H]1CN([C@@H](C)CO)C(=O)Cc2cc(NS(=O)(=O)c3ccc(Cl)cc3)ccc2O[C@@H]1CN(C)Cc1ccc(Cl)c(Cl)c1 was activity change (Venus) -42.51%.